Legend:
[1] = Quantification of cisplatin in protein-free serum (APE/TFPP); settings: 400 μM TFPP, 20 μM APE, pH 7.8, 45° C., 1 h
[2] = Limit of detection and quantification of copper-mediated depropargylation of PPE; settings: 20 μM PPE, 100 μM DMAPPP, borate pH 8.5, 2 h, 25° C.
[3] = Pt standard curve (APE/TFPP), LOD, LOQ and recovery of unknowns
[4] = 20 μM APE, 400 μM TFPP, pH 7.8, 1 h incubation

## N.N.[Cl][Pt][Cl] [cisplatin]
[1]
  LOD of cisplatin in serum: 120 nM
  LOQ of cisplatin in serum: 410 nM

## Propargyl Pittsburgh Green ether [PPE]
[2]
  limit of detection (LOD) for copper: 4.5 nM
  limit of quantification (LOQ) for copper: 15.1 nM

## allyl Pittsburgh Green ether [APE]
[3]; [4]
  limit of detection (LOD) for platinum: 5.5 nM
  limit of quantification (LOQ) for platinum: 18.3 nM
[3]; double-blind, 4 of 6 samples
  percent recoveries of unknown platinum samples: 90-115%
